# Laboratory results from PubChem BioAssay AID504467 (National Center for Advancing Translational Sciences (NCATS), 2011).
# Hit rate of the full screen: of about 330,000 compounds, about 7,700 (2.3%) were called active. The shares of active, inactive and inconclusive entries below differ from those in the screen. The call rests on the fitted dose curve; in most records, active means well fitted inhibition curve with a large enough effect; inconclusive means small, poorly fitted or top-dose-only effect, or effect the other way; inactive means flat fitted curve, though single readings scatter. A potency beside an inconclusive call is a rough fit, not a confirmed value.
# Test: qHTS screen for small molecules that inhibit ELG1-dependent DNA repair in human embryonic kidney (HEK293T) cells expressing luciferase-tagged ELG1; further: nearly all actives have a fitted effect of over 55% in size
# Settings: HEK293T ELG1-luciferase reporter, luminescence, 16 h, DNA damage induced by 5-fluorouridine; activity change, negative = inhibition: at 46.1 µM (top of the series)
# Procedure, shortened: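 Luminescence from the luciferase reporter, measured 30 min after ONE-Glo reagent at room temperature, was the read-out. Beforehand, 2,000 cells per well were exposed for 16 hr at 37 °C to 5-fluorouridine together with compound or vehicle.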
# On the % scale 0 is the no-effect control and ±100 the full control effect; potency means the concentration at half of the fitted maximal effect.
SMILES,"activity change, negative = inhibition",Potency
C=CCN1CCN(C(c2ccccc2OC)c2nnnn2C(C)(C)C)CC1 (stereo not drawn),inactive: 9.18%,–
COC(=O)c1cccc(-c2noc(-c3ccccc3F)n2)c1,–,"inconclusive: 5.8 µM [activator, partial curve]"
Clc1ccc(/C=C/c2nc3ccccc3[nH]2)cc1,–,"inconclusive: 0.316 µM [activator, full curve, poor fit]"
CC(=O)c1ccc(OCCCC(=O)Nc2ccc(C)c(S(=O)(=O)N(C)C)c2)cc1,–,"inconclusive: 25.9 µM [inhibitor, single point]"
CC(=O)Nc1sc2c(c1C(c1ccncc1)N1CCOCC1)CCCC2 (stereo not drawn),–,"inconclusive: 29.1 µM [activator, single point]"
O=C(N1CCN=C1SCc1cccnc1)C12CC3CC(CC(C3)C1)C2,–,"inconclusive: 23.1 µM [inhibitor, partial curve, poor fit]"
Cc1ccc(C)c(SCc2noc(C(=O)NC(C)C)c2C(=O)O)c1,inactive: -0.507%,–
Cc1nnc(NC(=O)C2CCCN(S(=O)(=O)c3ccccc3C(F)(F)F)C2)s1 (stereo not drawn),–,"inconclusive: 20.6 µM [inhibitor, partial curve]"
c1ccc(-c2nc3ccccc3nc2N2CCOCC2)cc1,inactive: -17.7%,–
CC(/C=N/NC(=O)Cc1cccn1C)=C\c1ccco1,inactive: 18.9%,–
CCc1c(C)nc2cc(-c3ccc(Cl)cc3)[nH]n2c1=O,–,"inconclusive: 9.2 µM [activator, partial curve]"
COc1ccc2cc(CN(Cc3cccs3)Cc3nnnn3Cc3ccccc3)c(=O)[nH]c2c1,–,"inconclusive: 29.1 µM [inhibitor, single point]"
CC(=O)c1sc(NC(=O)C2(F)C(F)(F)C(F)(F)C(F)(F)C(F)(F)C2(F)F)nc1C,–,"inconclusive: 4.11 µM [inhibitor, single point]"
CSc1ccccc1NC(=O)c1ccc(N2CCCC2=O)cc1,–,"inconclusive: 12.6 µM [activator, partial curve]"
COC(=O)c1ccc(/C=C/c2ccc3cccc(OC)c3n2)cc1,–,"inconclusive: 29.1 µM [inhibitor, single point]"
O=C(NCCc1cccc(Cl)c1)c1cccs1,–,"inconclusive: 11.6 µM [activator, partial curve]"
CCOC(=O)N1CCN(C(=O)c2ccc3c(c2)sc2nc(-c4ccccc4)cn23)CC1,–,"inconclusive: 10.3 µM [activator, partial curve]"
S=C(NNc1ccc2ccccc2c1)NC1CCCCC1,–,"inconclusive: 20.6 µM [activator, single point]"
CC(C)(C)c1ccc(-c2conc2N)cc1,–,"inconclusive: 3.26 µM [activator, full curve]"
O=C(NCc1cccnc1)c1ccc(COc2ccccc2Br)cc1,–,"inconclusive: 29.1 µM [inhibitor, single point]"
O=C(CCNS(=O)(=O)c1ccccc1F)N1CCN(C/C=C/c2ccccc2)CC1,inactive: -6.53%,–
CC(=O)c1c(C)cc(C)c(CSc2nc(C)cc(=O)[nH]2)c1C,–,"inconclusive: 29.1 µM [inhibitor, single point]"
CCCc1nc2oc3c(NCCN4CCOCC4)ncnc3c2c2c1CCCC2,–,"inconclusive: 3.66 µM [inhibitor, partial curve, poor fit]"

# Single records, from the list above. Order of values: activity change, negative = inhibition	Potency
# c1ccc(-c2nc3ccccc3nc2N2CCOCC2)cc1 as listed: inactive: -17.7%	–
# CCOC(=O)N1CCN(C(=O)c2ccc3c(c2)sc2nc(-c4ccccc4)cn23)CC1 as listed: –	inconclusive: 10.3 µM [activator, partial curve]
# CCc1c(C)nc2cc(-c3ccc(Cl)cc3)[nH]n2c1=O as listed: –	inconclusive: 9.2 µM [activator, partial curve]

# (further entries)

SMILES,"activity change, negative = inhibition",Potency
Cc1ccc(C(=O)N2CCC(N3CCC(C(=O)N4CCOCC4)CC3)CC2)cc1C,inactive: -1.02%,–
CCOC(=O)Cc1csc(NC(=O)CSc2nc(N)c3c(C)c(C)sc3n2)n1,–,"inconclusive: 29.1 µM [inhibitor, single point]"
CC(C)N1CN(c2ccccc2)C(=S)N(c2ccccc2)C1,–,"inconclusive: 25.9 µM [inhibitor, partial curve, poor fit]"
COc1cccc(NC(=S)N(CCCN2CCOCC2)Cc2cn(C)c3ccccc23)c1,–,"inconclusive: 20.6 µM [inhibitor, single point]"
Cc1oc2cc([N+](=O)[O-])c(O)c([N+](=O)[O-])c2c1C(=O)c1ccc(Cl)cc1,–,"inconclusive: 29.1 µM [inhibitor, single point]"
CCOc1ccc(Nc2ncnc3ccc([N+](=O)[O-])cc23)cc1,–,active: 9.2 µM
COc1ccc(-c2nc(CS(=O)CC(=O)NC3CCCC(C)C3C)c(C)o2)cc1OC (stereo not drawn),inactive: 5.49%,–
O=C(OCC(=O)N1CCOCC1)c1ccc2[nH]c3c(c2c1)CCCC3,–,"inconclusive: 29.1 µM [activator, single point]"
CCOC(=O)C1C(c2ccc(O)c(OC)c2)NC(=S)NC1(O)C(F)(F)F (stereo not drawn),inactive: 10.8%,–
CC(C)c1ccc(O)c(NC(=S)NC(=O)CCc2ccccc2)c1,–,"inconclusive: 32.6 µM [inhibitor, partial curve, poor fit]"
O=C(NCc1cccc(OC(F)(F)F)c1)c1ccc2c(c1)S(=O)(=O)c1cc(Cl)ccc1C2=O,inactive: -6.18%,–
Nc1nc2c(s1)C(=O)CC(c1ccccc1)C2 (stereo not drawn),–,"inconclusive: 18.4 µM [activator, single point]"
Cc1ccc(-n2c3c(cc(C(=O)NCCCN4CCOCC4)c2=O)C(=O)CC(C)(C)C3)cc1,–,"inconclusive: 29.1 µM [inhibitor, single point]"
O=C1NC(Nc2nc3ccccc3s2)(C(F)(F)F)C(=O)N1C1CCCCC1 (stereo not drawn),–,"inconclusive: 11.6 µM [inhibitor, partial curve, poor fit]"
Fc1ccccc1N1CCN(C2CCCN(Cc3cccc(C(F)(F)F)c3)C2)CC1 (stereo not drawn),inactive: -14.4%,–
Cc1cccc(NC(=S)NC(=O)c2ccco2)c1C,–,"inconclusive: 6.51 µM [activator, partial curve]"
CC(=O)Nc1nc(C)c(Oc2cccc(C(F)(F)F)c2)c(=O)[nH]1,–,"inconclusive: 3.66 µM [inhibitor, single point]"
C=CCn1cc(C(=O)NCCOC)c(=O)c2cc(S(=O)(=O)N3CCCCCC3)ccc21,–,"inconclusive: 6.51 µM [inhibitor, partial curve]"
CC(C)n1c(SCC(=O)Nc2ccccc2)nc2c1c(=O)n(C)c(=O)n2C,inactive: -22.4%,–
CC(=O)c1cccc(NC(=O)CC2S/C(=N/N=C/c3ccccc3)NC2=O)c1 (stereo not drawn),inactive: 3.83%,–
Cc1ccc(C(=O)NCc2cccnc2)cc1S(=O)(=O)Nc1ccccc1,inactive: -8.8%,–
CCOC(=O)c1nn(-c2ccc(Cl)cc2Cl)c(=N)c(C#N)c1C,–,"inconclusive: 16.4 µM [inhibitor, partial curve, poor fit]"
CCC(C)C(NC(N)=O)C(=O)NC1CCC(C)CC1 (stereo not drawn),inactive: 3.38%,–

SMILES,"activity change, negative = inhibition",Potency
Cc1ccc(OCC(=O)O/N=C(\N)c2cccnc2)cc1,–,"inconclusive: 29.1 µM [activator, single point]"
CCC(C(=O)NC1CCCC1)N(Cc1ccc2c(c1)OCO2)C(=O)c1snc(C(N)=O)c1N (stereo not drawn),–,"inconclusive: 16.4 µM [inhibitor, partial curve, poor fit]"
Cc1cc(C)c(OCCCCN2CCC(C)CC2)c(Br)c1,–,"inconclusive: 29.1 µM [inhibitor, single point]"
O=C(Nc1nnc(SCc2ccc(F)cc2)s1)c1ccc2c(c1)C(=O)N(c1ccccc1Cl)C2=O,inactive: -0.0131%,–
COCCNC(=S)N/N=C(\C)c1ccccc1O,–,"inconclusive: 23.1 µM [activator, partial curve]"
CCN(CC)S(=O)(=O)c1cccc(-c2nn(-c3ccccc3)cc2/C=C(\C#N)C(=O)NCc2ccco2)c1,–,"inconclusive: 4.61 µM [inhibitor, single point]"
O=C(NCc1ccc(F)cc1)c1cccc2c1C(=O)c1ccc(Cl)cc1S2(=O)=O,inactive: 13.1%,–
O=C(O)c1c[nH]ccc1=O,inactive: -0.982%,–
Cc1nn(-c2ccccc2)c(Cl)c1C(=O)OC(C)C(=O)Nc1ccc2c(c1)OCO2 (stereo not drawn),–,"inconclusive: 23.1 µM [inhibitor, single point]"
CCOC(=O)c1c(NC(=O)c2c(C(=O)O)cccc2[N+](=O)[O-])sc(C)c1C,inactive: -3.83%,–
CCN(CC(=O)Nc1cc(Cl)ccc1C)C(=O)COc1cccc2c1OC(C)(C)C2,inactive: -2.93%,–
O=C(COc1ccc2c(c1)CCC2)N1CCc2ccccc21,–,"inconclusive: 10.3 µM [activator, partial curve]"
O=C1CN(C(=O)c2ccc(Br)o2)C(c2ccccc2)c2cc(Br)ccc2N1 (stereo not drawn),–,"inconclusive: 20.6 µM [inhibitor, partial curve, poor fit]"
O=C(COC(=O)COc1ccccc1)NC1CCCC1,–,"inconclusive: 0.326 µM [activator, partial curve, poor fit]"
COc1ccc(N(C(=O)c2snc(C(N)=O)c2N)C(C(=O)NCc2ccccc2)c2ccc(F)cc2)c(OC)c1 (stereo not drawn),–,"inconclusive: 16.4 µM [inhibitor, single point]"
COc1cc(/C=N/NC(=O)COc2cc(C)cc(C)c2)ccc1OS(=O)(=O)c1ccc(C)cc1,–,"inconclusive: 23.1 µM [inhibitor, single point]"
CCCNC(=O)c1c(Cl)cnn1-c1ccc(C)cc1,–,"inconclusive: 10.3 µM [activator, partial curve]"
CC(C)CCNC(=O)CSc1nc2ccccc2s1,–,"inconclusive: 1.16 µM [inhibitor, single point]"
N#CC(C#N)=C1C=CC=CN1/C(=C\c1ccco1)C(=O)c1ccc(-c2ccccc2)cc1,–,"inconclusive: 25.9 µM [inhibitor, single point]"
O=C(O)c1ccc(S(=O)(=O)/N=C2\C=C(Nc3ccccc3F)C(=O)c3ccccc32)cc1,–,"inconclusive: 29.1 µM [inhibitor, single point]"
O=C(c1cccc(-n2cccc2)c1)N1CCN(S(=O)(=O)c2ccccc2)CC1,inactive: -18.1%,–
CC(Oc1ccc2ccc(=O)oc2c1)C(=O)NC1CC(C)(C)NC(C)(C)C1 (stereo not drawn),–,"inconclusive: 18.3 µM [activator, partial curve, poor fit]"
